Results are given in words; binding and its absence hold for the method and conditions named. Binding seen in cells or lysates may run through a third protein. Binding calls can cover weak binding; strength is not graded here. For part of these data: Sequences can lack the tags named with a protein.
Tests used:
[1] = target: T1, GST-hExportin-t (human (from the prefix h in hExportin-t)) (UniProt O43592); assay: pull-down; GST, GST-xCrm1 or GST-hExportin-t (50 ug) on BSA-blocked glutathione agarose beads; 25 uL interphase Xenopus egg extract in 500 uL PBS, 4 C, 2 h, with or without 100 ug 6xHis-RanQ69L-GTP; washed with PBS+0.2% NP-40 then PBS; immunoblot (mAb414, anti-Nup133, anti-Nup98); only the target purified
T1 sequence: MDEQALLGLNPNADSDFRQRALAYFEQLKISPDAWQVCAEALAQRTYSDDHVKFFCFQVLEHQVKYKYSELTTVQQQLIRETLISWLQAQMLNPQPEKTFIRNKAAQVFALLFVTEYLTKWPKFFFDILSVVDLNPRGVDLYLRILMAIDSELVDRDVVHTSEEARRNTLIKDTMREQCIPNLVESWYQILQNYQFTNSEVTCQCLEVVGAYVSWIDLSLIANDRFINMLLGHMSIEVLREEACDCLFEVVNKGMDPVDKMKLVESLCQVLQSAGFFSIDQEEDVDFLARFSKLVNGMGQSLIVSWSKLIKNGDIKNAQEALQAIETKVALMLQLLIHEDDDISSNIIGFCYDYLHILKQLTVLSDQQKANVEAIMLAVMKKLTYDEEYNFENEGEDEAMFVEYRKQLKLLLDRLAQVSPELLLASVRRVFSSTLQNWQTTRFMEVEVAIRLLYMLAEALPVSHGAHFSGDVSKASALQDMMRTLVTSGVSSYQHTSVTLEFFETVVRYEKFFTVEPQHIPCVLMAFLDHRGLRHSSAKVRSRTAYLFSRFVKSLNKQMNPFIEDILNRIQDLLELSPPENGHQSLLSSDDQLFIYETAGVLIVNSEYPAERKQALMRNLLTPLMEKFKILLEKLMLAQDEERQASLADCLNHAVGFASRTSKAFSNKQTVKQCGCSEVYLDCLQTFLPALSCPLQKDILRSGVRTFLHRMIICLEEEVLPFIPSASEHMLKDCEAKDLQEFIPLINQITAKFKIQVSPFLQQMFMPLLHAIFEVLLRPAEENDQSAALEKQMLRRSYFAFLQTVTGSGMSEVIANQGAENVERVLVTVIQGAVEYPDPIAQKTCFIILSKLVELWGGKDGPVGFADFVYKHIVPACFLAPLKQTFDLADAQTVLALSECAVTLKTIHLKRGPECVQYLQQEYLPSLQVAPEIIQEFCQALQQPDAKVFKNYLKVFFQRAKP

By UniProt entry, the sequences of proteins in these tests, tags left out. Where a name states a change or a piece, a line headed by the entry shows the natural chain unless it says otherwise.
UniProt Q6NS03: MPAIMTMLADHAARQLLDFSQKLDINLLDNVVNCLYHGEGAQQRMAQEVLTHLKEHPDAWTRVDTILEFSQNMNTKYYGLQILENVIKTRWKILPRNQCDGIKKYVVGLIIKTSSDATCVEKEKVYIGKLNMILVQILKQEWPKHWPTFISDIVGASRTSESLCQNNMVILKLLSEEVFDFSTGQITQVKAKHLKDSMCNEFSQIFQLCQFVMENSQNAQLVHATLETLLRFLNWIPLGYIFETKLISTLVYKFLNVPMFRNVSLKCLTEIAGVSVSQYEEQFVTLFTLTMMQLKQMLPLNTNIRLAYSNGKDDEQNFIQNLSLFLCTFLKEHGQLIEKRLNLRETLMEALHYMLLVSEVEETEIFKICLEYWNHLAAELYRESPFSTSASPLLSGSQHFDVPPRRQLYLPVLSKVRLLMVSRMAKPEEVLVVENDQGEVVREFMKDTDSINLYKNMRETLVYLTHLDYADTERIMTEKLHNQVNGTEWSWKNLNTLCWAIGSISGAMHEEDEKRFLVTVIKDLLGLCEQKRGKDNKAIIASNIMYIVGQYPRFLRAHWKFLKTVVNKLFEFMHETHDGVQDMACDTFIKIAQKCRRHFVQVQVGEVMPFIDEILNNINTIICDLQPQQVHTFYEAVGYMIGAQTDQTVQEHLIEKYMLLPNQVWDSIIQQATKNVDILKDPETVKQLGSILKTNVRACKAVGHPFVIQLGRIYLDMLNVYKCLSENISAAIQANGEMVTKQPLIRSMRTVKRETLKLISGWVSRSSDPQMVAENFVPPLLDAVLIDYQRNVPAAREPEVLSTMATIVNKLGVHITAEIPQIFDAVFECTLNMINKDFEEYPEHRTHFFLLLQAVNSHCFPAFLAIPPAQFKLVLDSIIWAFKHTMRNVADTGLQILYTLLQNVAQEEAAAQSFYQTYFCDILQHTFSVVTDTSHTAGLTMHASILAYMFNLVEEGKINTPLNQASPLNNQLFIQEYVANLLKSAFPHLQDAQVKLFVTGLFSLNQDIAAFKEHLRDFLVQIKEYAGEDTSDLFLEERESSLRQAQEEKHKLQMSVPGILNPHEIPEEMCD
UniProt Q640Z6: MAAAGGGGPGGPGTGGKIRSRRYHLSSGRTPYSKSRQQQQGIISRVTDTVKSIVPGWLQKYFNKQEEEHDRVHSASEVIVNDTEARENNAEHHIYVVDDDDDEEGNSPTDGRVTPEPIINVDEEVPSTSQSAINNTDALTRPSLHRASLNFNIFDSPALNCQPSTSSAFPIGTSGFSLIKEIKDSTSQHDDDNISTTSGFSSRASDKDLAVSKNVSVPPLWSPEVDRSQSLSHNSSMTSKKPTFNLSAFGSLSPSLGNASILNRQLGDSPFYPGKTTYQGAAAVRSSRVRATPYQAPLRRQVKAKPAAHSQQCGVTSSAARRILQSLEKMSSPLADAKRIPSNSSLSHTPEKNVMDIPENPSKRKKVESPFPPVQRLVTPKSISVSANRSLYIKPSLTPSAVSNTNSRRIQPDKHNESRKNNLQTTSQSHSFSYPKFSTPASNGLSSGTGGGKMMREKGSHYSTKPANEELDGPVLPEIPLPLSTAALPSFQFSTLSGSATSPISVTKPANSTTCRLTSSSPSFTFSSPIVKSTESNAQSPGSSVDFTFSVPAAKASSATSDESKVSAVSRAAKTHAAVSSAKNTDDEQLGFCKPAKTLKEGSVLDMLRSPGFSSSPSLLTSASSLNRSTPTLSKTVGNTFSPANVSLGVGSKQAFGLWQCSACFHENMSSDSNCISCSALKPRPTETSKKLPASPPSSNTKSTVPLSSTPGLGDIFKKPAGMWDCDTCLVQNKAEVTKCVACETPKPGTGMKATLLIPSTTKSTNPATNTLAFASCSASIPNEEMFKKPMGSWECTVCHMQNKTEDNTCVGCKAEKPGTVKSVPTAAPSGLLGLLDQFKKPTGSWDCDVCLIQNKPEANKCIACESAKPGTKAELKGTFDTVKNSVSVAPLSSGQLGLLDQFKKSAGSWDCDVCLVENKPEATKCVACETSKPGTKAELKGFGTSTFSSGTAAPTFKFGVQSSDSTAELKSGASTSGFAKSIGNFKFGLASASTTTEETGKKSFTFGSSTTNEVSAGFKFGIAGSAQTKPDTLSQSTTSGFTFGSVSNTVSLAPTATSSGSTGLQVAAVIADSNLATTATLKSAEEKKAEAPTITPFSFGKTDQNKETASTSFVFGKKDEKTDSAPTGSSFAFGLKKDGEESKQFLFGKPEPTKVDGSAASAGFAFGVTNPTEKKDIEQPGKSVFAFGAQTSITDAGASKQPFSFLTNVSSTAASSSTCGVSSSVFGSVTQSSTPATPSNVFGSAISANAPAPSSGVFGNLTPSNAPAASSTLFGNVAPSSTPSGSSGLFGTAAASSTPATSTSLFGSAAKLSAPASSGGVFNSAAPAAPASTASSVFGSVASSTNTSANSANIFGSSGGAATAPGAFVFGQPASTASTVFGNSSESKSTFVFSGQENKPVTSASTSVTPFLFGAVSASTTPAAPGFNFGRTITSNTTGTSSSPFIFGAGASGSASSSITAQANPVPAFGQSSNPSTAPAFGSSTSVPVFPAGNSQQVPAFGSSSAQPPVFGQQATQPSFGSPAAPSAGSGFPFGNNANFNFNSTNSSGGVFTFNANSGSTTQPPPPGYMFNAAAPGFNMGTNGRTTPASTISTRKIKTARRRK

[2] = target: GST-xCrm1 (Xenopus (from the prefix x in xCrm1)) (UniProt Q6NS03); assay: as above

Substance	binding [1]	binding [2]
Nup358	binds	–
Nup153 (from UniProt Q640Z6 1-1605)	–	binds
Nup62	binds	–
Nup214	binds	–
Nup98	binds	–
Nup133	binds	–

— article PMC7540616
